These are yes or no findings as the source states them, for the method shown. In cells and extracts the contact can be indirect. Some results given as binding are weak or reduced against the parent protein; the word gives no strength. Sequences can lack the tags named with a protein.
Molecular target: T1, GST-BMRF1(1-303) fusion polypeptide (Epstein-Barr Virus) (UniProt P03191)
T1 sequence: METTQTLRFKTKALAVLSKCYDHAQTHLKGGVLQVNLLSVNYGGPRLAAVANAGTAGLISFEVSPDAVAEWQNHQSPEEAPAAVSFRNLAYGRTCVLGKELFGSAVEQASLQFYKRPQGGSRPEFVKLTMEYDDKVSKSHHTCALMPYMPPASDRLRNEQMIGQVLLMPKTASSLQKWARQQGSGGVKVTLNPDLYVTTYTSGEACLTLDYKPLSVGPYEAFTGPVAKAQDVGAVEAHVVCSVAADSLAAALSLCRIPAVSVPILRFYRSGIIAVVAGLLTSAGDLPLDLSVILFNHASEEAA
Assay: GST pull-down of [35S]-methionine labeled in vitro translated polypeptide, 100 mM ammonium sulfate

B1: BALF5 with deletion of the amino-terminal 160 residues (enzyme)
chain: VEFAVLSALKASTFDRRTPCRVSVEKVTRRSIMGYGNHAGDYHKITLSHPNSVCHVATWLQDKHGCRIFEANVDATRRFVLDNDFVTFGWYSCRRAIPRLQHRDSYAELEYDCEVGDLSVRREDSSWPSYQALAFDIECLGEEGFPTATNEADLILQISCVLWSTGEEAGRYRRILLTLGTCEDIEGVEVYEFPSELDMLYAFFQLIRDLSVEIVTGYNVANFDWPYILDRARHIYSINPASLGKIRAGGVCEVRRPHDAGKGFLRANTKVRITGLIPIDMYAVCRDKLSLSDYKLDTVARHLLGAKKEDVHYKEIPRLFAAGPEGRRRLGMYCVQDSALVMDLLNHFVIHVEVAEIAKIAHIPCRRVLDDGQQIRVFSCLLAAAQKENFILPMPSASDRDGYQGATVIQPLSGFYNSPVLVVDFASLYPSIIQAHNLCYSTMITPGEEHRLAGLRPGEDYESFRLTGGVYHFVKKHVHESFLASLLTSWLAKRKAIKKLLAACEDPRQRTILDKQQLAIKCTCNAVYGFTGVANGLFPCLSIAETVTLQGRTMLERAKAFVEALSPANLQALAPSPDAWAPLNPEGQLRVIYGDTDSLFIECRGFSESETLRFADALAAHTTRSLFVAPISLEAEKTFSCLMLITKKRYVGVLTDGKTLMKGVELVRKTACKFVQTRCRRVLDLVLADARVKEAASLLSHRPFQESFTQGLPVGFLPVIDILNQAYTDLREGRVPMGELCFSTELSRKLSAYKSTQMPHLAVYQKFVERNEELPQIHDRIQYVFVEPKGGVKGARKTEMAEDPAYAERHGVPVAVDHYFDKLLQGAANILQCLFDNNSGAALSVLQNFTARPPF
- binding: binds

Source: US20150064747A1
